Assay results published in paper PMC11432330, “Novel Drug-like HsrA Inhibitors Exhibit Potent Narrow-Spectrum Antimicrobial Activities against Helicobacter pylori” (International Journal of Molecular Sciences, 2024).
This continues a long series; more values of the same kind are listed elsewhere.

Test system: H. pylori 26695
Experiment: In vivo inhibition of HsrA: RNA-Seq transcriptomic analysis of exposed cells
Assay type: cell-based, Helicobacter pylori
Protocol: Bacterial growth from three blood agar plates of H. pylori ATCC 700392 (aka 26695) incubated for 48 h at 37 °C under microaerobic conditions was aseptically resuspended in BHI + FBS and adjusted to 10^7 CFU/mL. BHI broth cultures were incubated microaerobically at 37 °C for 24 h. […] At this time, bacterial growth was stopped by adding 1.5 mL ice-cold RNA stop solution (95% absolute ethanol, 5% acid-buffered phenol) and subsequently incubated on ice. Control samples were exposed to the same amount of DMSO instead of the inhibitor. Helicobacter cells from all samples were harvested by centrifugation (4000 rpm at 4 °C for 10 min), then the pellets were quickly frozen by immersion in liquid nitrogen and stored at −80 °C.
RNA-Seq analysis was performed by GENEWIZ (Azenta Life Sciences, Leipzig, Germany). Frozen cell pellets from two biological replicates of each treatment condition were properly submitted to GENEWIZ in dry ice. RNA-Seq libraries were prepared according to standard protocols via rRNA depletion, RNA fragmentation and random priming, reverse transcription, 5’-phosphorylation and dA-tailing of cDNAs, adaptor ligation, and PCR enrichment. Once the quality of each library was confirmed, they were sequenced on an Illumina NovaSeq 6000 (Illumina, San Diego, CA, USA) with 150-bp paired-ends. Raw sequence reads were filtered to remove possible adapter sequences and nucleotides with poor quality using Trimmomatic v.0.36 [105]. The trimmed reads were subsequently mapped to the H. pylori strain 26695 reference genome NC_000915.1 available on NCBI, by using the Bowtie2 aligner v.2.2.6 [106]. Unique gene hit counts were calculated by using featureCounts from the Subread package v.1.5.2. Only unique reads that fell within the gene regions were counted. Using DESeq2 [108], a comparison of the gene expression between the control and treated groups of samples was performed. The Wald test was used to generate p-values and log2 fold changes. Genes with an adjusted p-value < 0.05 and absolute log2 fold change >1 were considered as differentially expressed genes (DEGs) for each comparison. The RNA-Seq data generated in this study have been deposited in ArrayExpress with the accession number E-MTAB-14255.

NC(=NOC(=O)Nc1ccc(Cl)cc1)c1csc([N+](=O)[O-])c1 [Ligand V, N′-{[(4-chloroanilino)carbonyl]}oxy-5-nitrothiophene-3-carboximidamide]
log2 Fold Change (gene HP0004, exposed to lethal concentration of V vs control): -0.934
log2 Fold Change (gene HP0009, exposed to lethal concentrations vs control): -0.137
log2 Fold Change (gene HP0014, exposed to lethal concentrations of V vs control): 0.530
log2 Fold Change (gene HP0015, exposed to lethal concentrations vs control): -0.727
log2 Fold Change (gene HP0016, exposed to lethal concentration of V vs control): -0.920
log2 Fold Change (gene HP0017, exposed to lethal concentrations vs control): 1.878
log2 Fold Change (gene HP0019, exposed to lethal concentrations vs control): 1.526
log2 Fold Change (gene HP0020, exposed to lethal concentrations vs control): 1.383
log2 Fold Change (gene HP0021, exposed to lethal concentrations vs control): -0.054
log2 Fold Change (gene HP0024, exposed to lethal concentrations vs control): 2.020
log2 Fold Change (gene HP0025, exposed to lethal concentrations of V vs control): 0.492
log2 Fold Change (gene HP0027, exposed to lethal concentrations vs control): -0.045
log2 Fold Change (gene HP0032, exposed to lethal concentrations of V vs control): 0.606
log2 Fold Change (gene HP0034, exposed to lethal concentrations vs control): 1.038
log2 Fold Change (gene HP0035, exposed to lethal concentrations of V vs control): 0.902
log2 Fold Change (gene HP0036, exposed to lethal concentrations of V vs control): 0.681
log2 Fold Change (gene HP0038, exposed to lethal concentrations vs control): -0.105
log2 Fold Change (gene HP0044, exposed to lethal concentrations vs control): -0.698
log2 Fold Change (gene HP0045, exposed to lethal concentrations vs control): -0.109
log2 Fold Change (gene HP0047, exposed to lethal concentrations vs control): 0.108
log2 Fold Change (gene HP0048, exposed to lethal concentrations vs control): 0.009
log2 Fold Change (gene HP0049, exposed to lethal concentrations of V vs control): 0.878
log2 Fold Change (gene HP0050, exposed to lethal concentration of V vs control): -1.038
log2 Fold Change (gene HP0051, exposed to lethal concentrations vs control): -0.661
log2 Fold Change (gene HP0053, exposed to lethal concentration of V vs control): -0.990
log2 Fold Change (gene HP0055, exposed to lethal concentrations of V vs control): 0.687
log2 Fold Change (gene HP0056, exposed to lethal concentrations vs control): 1.163
log2 Fold Change (gene HP0057, exposed to lethal concentration of V vs control): -1.007
log2 Fold Change (gene HP0059, exposed to lethal concentrations of V vs control): 0.949
log2 Fold Change (gene HP0060, exposed to lethal concentrations of V vs control): 0.689
log2 Fold Change (gene HP0061, exposed to lethal concentrations of V vs control): 0.495
log2 Fold Change (gene HP0062, exposed to lethal concentrations of V vs control): 0.662
log2 Fold Change (gene HP0067, exposed to lethal concentration of V vs control): -0.963
log2 Fold Change (gene HP0068, exposed to lethal concentration of V vs control): -1.529
log2 Fold Change (gene HP0069, exposed to lethal concentration of V vs control): -2.012
log2 Fold Change (gene HP0078, exposed to lethal concentrations vs control): 1.195
log2 Fold Change (gene HP0079, exposed to lethal concentrations of V vs control): 0.665
log2 Fold Change (gene HP0080, exposed to lethal concentrations of V vs control): 0.805
log2 Fold Change (gene HP0085, exposed to lethal concentration of V vs control): -0.923
log2 Fold Change (gene HP0088, exposed to lethal concentrations vs control): -0.010
log2 Fold Change (gene HP0090, exposed to lethal concentrations vs control): 1.424
log2 Fold Change (gene HP0091, exposed to lethal concentrations vs control): 1.092
log2 Fold Change (gene HP0092, exposed to lethal concentrations of V vs control): 0.649
log2 Fold Change (gene HP0095, exposed to lethal concentration of V vs control): -1.035
log2 Fold Change (gene HP0096, exposed to lethal concentrations vs control): 1.117
log2 Fold Change (gene HP0097, exposed to lethal concentrations of V vs control): 0.958
log2 Fold Change (gene HP0098, exposed to lethal concentration of V vs control): -1.205
log2 Fold Change (gene HP0101, exposed to lethal concentrations vs control): -0.630
log2 Fold Change (gene HP0103, exposed to lethal concentrations vs control): 0.054
log2 Fold Change (gene HP0105, exposed to lethal concentrations of V vs control): 0.625
log2 Fold Change (gene HP0108, exposed to lethal concentrations vs control): 1.025
log2 Fold Change (gene HP0110, exposed to lethal concentrations vs control): 1.687
log2 Fold Change (gene HP0111, exposed to lethal concentrations vs control): 1.794
log2 Fold Change (gene HP0113, exposed to lethal concentrations vs control): 1.103
log2 Fold Change (gene HP0114, exposed to lethal concentrations vs control): -0.074
log2 Fold Change (gene HP0115, exposed to lethal concentrations vs control): -0.842
log2 Fold Change (gene HP0116, exposed to lethal concentrations of V vs control): 0.934
log2 Fold Change (gene HP0117, exposed to lethal concentrations of V vs control): 0.602
log2 Fold Change (gene HP0127, exposed to lethal concentrations vs control): -0.787
log2 Fold Change (gene HP0129, exposed to lethal concentration of V vs control): -1.484
log2 Fold Change (gene HP0130, exposed to lethal concentrations vs control): -0.129
log2 Fold Change (gene HP0131, exposed to lethal concentrations of V vs control): 0.657
log2 Fold Change (gene HP0132, exposed to lethal concentrations vs control): 1.081
log2 Fold Change (gene HP0133, exposed to lethal concentrations vs control): 1.547
log2 Fold Change (gene HP0134, exposed to lethal concentrations vs control): 1.154
log2 Fold Change (gene HP0135, exposed to lethal concentrations vs control): -0.101
log2 Fold Change (gene HP0136, exposed to lethal concentrations vs control): -0.118
log2 Fold Change (gene HP0137, exposed to lethal concentrations of V vs control): 0.731
log2 Fold Change (gene HP0139, exposed to lethal concentration of V vs control): -0.963
log2 Fold Change (gene HP0140, exposed to lethal concentrations vs control): 1.186
log2 Fold Change (gene HP0146, exposed to lethal concentrations vs control): 0.065
log2 Fold Change (gene HP0147, exposed to lethal concentrations vs control): -0.100
log2 Fold Change (gene HP0148, exposed to lethal concentrations vs control): -0.863
log2 Fold Change (gene HP0150, exposed to lethal concentration of V vs control): -1.267
log2 Fold Change (gene HP0156, exposed to lethal concentrations vs control): -0.062
log2 Fold Change (gene HP0162, exposed to lethal concentrations vs control): -0.684
log2 Fold Change (gene HP0163, exposed to lethal concentrations vs control): -0.869
log2 Fold Change (gene HP0167, exposed to lethal concentrations of V vs control): 0.542
log2 Fold Change (gene HP0172, exposed to lethal concentrations of V vs control): 0.925
log2 Fold Change (gene HP0174, exposed to lethal concentrations vs control): -0.654
log2 Fold Change (gene HP0174a, exposed to lethal concentration of V vs control): -2.290
log2 Fold Change (gene HP0175, exposed to lethal concentration of V vs control): -0.970
log2 Fold Change (gene HP0177, exposed to lethal concentrations vs control): -0.625
log2 Fold Change (gene HP0178, exposed to lethal concentrations vs control): -0.654
log2 Fold Change (gene HP0181, exposed to lethal concentration of V vs control): -1.122
log2 Fold Change (gene HP0189, exposed to lethal concentration of V vs control): -1.334
log2 Fold Change (gene HP0190, exposed to lethal concentration of V vs control): -1.114
log2 Fold Change (gene HP0192, exposed to lethal concentrations of V vs control): 0.673
log2 Fold Change (gene HP0193, exposed to lethal concentration of V vs control): -1.006
log2 Fold Change (gene HP0201, exposed to lethal concentrations vs control): -0.614
log2 Fold Change (gene HP0207, exposed to lethal concentrations of V vs control): 0.793
log2 Fold Change (gene HP0211, exposed to lethal concentrations of V vs control): 0.752
log2 Fold Change (gene HP0212, exposed to lethal concentrations vs control): 0.059
log2 Fold Change (gene HP0216, exposed to lethal concentrations vs control): 0.078
log2 Fold Change (gene HP0217, exposed to lethal concentrations of V vs control): 0.712
log2 Fold Change (gene HP0218, exposed to lethal concentrations vs control): 1.032
log2 Fold Change (gene HP0219, exposed to lethal concentrations of V vs control): 0.502
log2 Fold Change (gene HP0220, exposed to lethal concentrations vs control): -0.131
log2 Fold Change (gene HP0223, exposed to lethal concentrations vs control): -0.091
log2 Fold Change (gene HP0226, exposed to lethal concentrations vs control): 0.090
log2 Fold Change (gene HP0227, exposed to lethal concentrations vs control): 1.626
log2 Fold Change (gene HP0228, exposed to lethal concentrations of V vs control): 0.689
log2 Fold Change (gene HP0229, exposed to lethal concentration of V vs control): -1.260
log2 Fold Change (gene HP0231, exposed to lethal concentrations of V vs control): 0.649
log2 Fold Change (gene HP0232, exposed to lethal concentrations vs control): 1.014
log2 Fold Change (gene HP0233, exposed to lethal concentrations of V vs control): 0.649
log2 Fold Change (gene HP0235, exposed to lethal concentrations of V vs control): 0.898
log2 Fold Change (gene HP0236, exposed to lethal concentration of V vs control): -0.991
log2 Fold Change (gene HP0238, exposed to lethal concentrations vs control): -0.106
log2 Fold Change (gene HP0240, exposed to lethal concentration of V vs control): -0.951
log2 Fold Change (gene HP0241, exposed to lethal concentrations vs control): 0.067
log2 Fold Change (gene HP0242, exposed to lethal concentrations vs control): 1.094
log2 Fold Change (gene HP0243, exposed to lethal concentrations vs control): 1.235
log2 Fold Change (gene HP0244, exposed to lethal concentration of V vs control): -1.126
log2 Fold Change (gene HP0245, exposed to lethal concentrations vs control): -0.771
log2 Fold Change (gene HP0247, exposed to lethal concentration of V vs control): -2.235
log2 Fold Change (gene HP0248, exposed to lethal concentrations vs control): -0.762
log2 Fold Change (gene HP0249, exposed to lethal concentration of V vs control): -1.183
log2 Fold Change (gene HP0250, exposed to lethal concentrations of V vs control): 0.866
